No constants are given. Whether binding was seen depends on the method and setting. Binding seen in cells or lysates may run through a third protein. Some results given as binding are weak or reduced against the parent protein; the word gives no strength.

Sequences of proteins named here, by UniProt entry; tags and fusion partners are left off. Residues count along the entry.
UniProt P19022, residues 160-906: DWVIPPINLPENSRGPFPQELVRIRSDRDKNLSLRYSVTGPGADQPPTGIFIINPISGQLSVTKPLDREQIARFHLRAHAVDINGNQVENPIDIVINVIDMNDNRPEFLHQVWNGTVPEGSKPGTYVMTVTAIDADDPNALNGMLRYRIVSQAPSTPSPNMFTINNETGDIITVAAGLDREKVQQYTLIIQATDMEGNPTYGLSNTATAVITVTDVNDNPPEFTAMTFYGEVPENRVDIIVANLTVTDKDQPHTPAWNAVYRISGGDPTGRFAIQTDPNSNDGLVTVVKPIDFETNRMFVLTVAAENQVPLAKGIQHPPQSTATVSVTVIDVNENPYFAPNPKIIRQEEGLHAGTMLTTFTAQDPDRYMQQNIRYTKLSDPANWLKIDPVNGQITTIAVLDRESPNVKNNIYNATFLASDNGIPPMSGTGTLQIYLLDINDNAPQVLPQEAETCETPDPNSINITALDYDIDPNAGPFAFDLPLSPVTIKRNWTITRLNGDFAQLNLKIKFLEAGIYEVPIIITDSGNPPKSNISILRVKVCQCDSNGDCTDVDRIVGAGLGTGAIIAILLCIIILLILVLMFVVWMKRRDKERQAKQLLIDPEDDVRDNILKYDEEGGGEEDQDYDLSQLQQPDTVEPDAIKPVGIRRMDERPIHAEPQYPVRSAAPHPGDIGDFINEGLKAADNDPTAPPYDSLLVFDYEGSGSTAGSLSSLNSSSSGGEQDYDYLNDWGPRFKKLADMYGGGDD
UniProt P35222: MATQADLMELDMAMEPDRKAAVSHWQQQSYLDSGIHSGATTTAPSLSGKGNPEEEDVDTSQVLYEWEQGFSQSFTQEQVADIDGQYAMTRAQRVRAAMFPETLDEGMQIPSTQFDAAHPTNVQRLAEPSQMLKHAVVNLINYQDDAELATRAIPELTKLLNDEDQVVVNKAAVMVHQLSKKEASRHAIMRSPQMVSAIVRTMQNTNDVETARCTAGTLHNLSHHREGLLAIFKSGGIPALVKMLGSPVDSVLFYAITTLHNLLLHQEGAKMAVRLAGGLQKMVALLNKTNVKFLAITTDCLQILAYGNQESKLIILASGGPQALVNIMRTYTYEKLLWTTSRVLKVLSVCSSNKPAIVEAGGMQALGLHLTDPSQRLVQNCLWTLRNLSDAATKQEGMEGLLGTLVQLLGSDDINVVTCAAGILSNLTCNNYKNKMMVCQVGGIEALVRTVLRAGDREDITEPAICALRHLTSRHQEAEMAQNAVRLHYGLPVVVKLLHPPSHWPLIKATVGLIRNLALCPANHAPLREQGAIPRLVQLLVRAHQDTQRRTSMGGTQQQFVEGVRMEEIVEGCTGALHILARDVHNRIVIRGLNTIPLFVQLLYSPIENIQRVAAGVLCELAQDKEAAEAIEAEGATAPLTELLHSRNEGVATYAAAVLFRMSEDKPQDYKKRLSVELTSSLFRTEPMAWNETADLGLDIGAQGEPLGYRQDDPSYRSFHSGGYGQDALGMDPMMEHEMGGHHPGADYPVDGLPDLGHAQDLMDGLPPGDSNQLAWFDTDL
UniProt Q9NSV4: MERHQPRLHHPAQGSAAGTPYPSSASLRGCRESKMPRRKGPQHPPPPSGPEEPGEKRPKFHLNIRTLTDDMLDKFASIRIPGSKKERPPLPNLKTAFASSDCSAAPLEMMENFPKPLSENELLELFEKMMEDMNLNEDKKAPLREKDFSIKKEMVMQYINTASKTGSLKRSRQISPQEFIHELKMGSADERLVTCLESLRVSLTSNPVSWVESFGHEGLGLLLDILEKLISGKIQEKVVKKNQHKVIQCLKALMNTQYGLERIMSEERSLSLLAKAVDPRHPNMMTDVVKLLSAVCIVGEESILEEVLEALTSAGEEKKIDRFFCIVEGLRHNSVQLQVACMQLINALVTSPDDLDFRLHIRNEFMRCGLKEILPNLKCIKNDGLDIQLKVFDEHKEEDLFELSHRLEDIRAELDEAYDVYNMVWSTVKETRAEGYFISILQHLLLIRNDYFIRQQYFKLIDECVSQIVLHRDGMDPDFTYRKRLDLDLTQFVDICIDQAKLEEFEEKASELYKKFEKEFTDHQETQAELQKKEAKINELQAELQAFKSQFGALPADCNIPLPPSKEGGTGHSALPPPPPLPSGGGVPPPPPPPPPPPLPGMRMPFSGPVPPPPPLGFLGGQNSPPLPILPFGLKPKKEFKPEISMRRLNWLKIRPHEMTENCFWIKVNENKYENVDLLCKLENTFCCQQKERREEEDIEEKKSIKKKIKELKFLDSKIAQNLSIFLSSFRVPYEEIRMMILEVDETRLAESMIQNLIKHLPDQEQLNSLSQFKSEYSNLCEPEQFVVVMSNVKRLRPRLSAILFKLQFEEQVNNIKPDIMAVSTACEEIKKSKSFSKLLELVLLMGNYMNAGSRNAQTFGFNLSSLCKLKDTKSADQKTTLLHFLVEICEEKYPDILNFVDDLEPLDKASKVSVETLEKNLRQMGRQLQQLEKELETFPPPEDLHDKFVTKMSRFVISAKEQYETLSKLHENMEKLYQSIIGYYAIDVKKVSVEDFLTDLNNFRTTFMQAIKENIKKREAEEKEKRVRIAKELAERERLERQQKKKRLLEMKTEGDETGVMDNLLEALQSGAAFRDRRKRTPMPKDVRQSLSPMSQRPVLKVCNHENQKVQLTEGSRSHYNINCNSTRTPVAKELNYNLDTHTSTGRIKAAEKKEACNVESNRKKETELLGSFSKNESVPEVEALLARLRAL
UniProt Q9Z207: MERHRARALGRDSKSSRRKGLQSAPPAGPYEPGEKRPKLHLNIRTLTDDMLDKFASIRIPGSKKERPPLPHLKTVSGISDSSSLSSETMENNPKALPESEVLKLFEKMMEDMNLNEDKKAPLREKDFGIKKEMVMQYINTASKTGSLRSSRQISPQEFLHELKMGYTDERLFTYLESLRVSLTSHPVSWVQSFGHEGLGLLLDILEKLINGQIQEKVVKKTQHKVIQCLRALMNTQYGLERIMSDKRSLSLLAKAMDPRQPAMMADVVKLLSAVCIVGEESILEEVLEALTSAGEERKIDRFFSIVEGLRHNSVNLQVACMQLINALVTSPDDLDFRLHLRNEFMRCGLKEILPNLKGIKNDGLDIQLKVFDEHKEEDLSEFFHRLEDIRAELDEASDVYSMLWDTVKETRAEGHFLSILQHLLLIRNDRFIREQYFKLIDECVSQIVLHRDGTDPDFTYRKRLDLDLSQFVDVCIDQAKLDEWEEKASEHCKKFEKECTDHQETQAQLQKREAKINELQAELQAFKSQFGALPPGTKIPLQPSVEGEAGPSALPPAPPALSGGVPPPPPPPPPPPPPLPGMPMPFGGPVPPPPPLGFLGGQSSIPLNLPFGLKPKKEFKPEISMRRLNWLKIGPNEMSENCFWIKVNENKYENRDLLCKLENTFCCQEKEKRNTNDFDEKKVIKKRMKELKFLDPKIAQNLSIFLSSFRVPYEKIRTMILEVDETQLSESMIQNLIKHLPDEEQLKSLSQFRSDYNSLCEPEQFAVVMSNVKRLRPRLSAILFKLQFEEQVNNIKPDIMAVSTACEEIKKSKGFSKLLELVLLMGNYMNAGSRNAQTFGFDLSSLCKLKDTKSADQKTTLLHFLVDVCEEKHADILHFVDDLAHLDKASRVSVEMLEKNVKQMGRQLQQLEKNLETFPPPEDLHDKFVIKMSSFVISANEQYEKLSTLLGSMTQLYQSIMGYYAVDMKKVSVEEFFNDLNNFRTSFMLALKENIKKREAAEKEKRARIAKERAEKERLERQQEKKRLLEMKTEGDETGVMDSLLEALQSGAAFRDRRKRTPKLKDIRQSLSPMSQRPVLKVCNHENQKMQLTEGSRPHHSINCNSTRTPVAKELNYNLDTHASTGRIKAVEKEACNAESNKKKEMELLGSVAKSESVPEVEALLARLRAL
UniProt O60610: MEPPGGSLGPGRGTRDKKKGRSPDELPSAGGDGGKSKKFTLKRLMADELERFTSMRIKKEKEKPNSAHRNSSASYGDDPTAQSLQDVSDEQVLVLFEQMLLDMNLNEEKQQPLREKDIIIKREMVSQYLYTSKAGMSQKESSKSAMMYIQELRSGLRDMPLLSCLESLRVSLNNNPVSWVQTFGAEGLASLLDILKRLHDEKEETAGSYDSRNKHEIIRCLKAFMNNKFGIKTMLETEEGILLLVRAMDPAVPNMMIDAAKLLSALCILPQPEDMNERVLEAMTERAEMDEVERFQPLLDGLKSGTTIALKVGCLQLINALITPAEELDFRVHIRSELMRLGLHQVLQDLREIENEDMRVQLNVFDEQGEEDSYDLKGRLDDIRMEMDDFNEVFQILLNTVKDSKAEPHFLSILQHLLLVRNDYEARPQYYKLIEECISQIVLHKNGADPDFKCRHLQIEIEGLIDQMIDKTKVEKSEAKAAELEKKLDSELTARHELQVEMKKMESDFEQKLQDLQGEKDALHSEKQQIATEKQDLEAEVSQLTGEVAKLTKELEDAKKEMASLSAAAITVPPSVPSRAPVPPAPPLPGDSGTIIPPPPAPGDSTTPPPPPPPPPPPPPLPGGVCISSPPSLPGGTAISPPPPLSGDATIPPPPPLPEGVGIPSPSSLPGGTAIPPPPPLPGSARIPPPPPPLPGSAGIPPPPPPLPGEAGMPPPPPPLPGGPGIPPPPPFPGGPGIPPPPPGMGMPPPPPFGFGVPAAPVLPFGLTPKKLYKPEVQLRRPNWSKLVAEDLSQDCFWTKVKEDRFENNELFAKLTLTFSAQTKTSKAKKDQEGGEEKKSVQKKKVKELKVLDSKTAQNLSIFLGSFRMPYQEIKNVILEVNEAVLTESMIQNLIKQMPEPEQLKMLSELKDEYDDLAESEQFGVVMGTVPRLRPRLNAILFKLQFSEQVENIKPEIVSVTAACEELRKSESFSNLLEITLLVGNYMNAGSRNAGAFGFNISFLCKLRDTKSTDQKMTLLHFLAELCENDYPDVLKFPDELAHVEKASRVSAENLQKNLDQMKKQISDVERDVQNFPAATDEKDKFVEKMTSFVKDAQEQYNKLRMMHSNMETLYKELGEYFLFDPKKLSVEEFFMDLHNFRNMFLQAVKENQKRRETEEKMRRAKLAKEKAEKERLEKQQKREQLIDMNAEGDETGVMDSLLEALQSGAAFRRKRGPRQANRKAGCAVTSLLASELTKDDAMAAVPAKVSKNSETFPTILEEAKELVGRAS
UniProt P35221: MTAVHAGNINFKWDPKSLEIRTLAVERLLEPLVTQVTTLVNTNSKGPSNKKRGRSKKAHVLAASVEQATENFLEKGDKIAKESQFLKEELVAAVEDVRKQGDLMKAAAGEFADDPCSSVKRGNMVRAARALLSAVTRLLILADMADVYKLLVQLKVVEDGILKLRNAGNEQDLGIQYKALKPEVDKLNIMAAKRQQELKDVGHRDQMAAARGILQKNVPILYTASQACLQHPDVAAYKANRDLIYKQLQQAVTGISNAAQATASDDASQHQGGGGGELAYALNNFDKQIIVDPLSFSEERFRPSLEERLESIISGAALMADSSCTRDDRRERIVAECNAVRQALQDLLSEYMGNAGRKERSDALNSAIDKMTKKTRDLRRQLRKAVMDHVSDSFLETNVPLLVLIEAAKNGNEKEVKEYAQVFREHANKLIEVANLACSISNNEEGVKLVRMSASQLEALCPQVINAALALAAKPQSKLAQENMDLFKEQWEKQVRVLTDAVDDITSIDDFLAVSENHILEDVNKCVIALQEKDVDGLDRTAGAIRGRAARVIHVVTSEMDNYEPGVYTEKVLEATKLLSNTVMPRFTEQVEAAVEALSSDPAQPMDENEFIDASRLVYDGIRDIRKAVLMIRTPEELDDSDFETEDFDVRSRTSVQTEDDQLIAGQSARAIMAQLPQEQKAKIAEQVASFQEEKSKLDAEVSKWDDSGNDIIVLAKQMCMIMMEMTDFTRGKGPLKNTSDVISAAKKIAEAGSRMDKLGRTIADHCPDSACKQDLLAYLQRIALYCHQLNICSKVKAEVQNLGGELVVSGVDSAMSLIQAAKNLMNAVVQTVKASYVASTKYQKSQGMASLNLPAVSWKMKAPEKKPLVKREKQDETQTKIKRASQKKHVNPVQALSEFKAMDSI

From publication doi:10.1101/721530 come the findings set out here.

In assay [1] the target is N-cadherin (human (endogenous in OVCA429)) (UniProt P19022). Description: co-IP.
For assay [2], the target named is β-catenin (human (endogenous in OVCA429)) (UniProt P35222). Put plainly: co-IP.
The target of assay [3] is mDia2 (mammalian Diaphanous-related formin 2) (human (endogenous in OVCA429)) (UniProt Q9NSV4). Description: proximity ligation.
Assay [4] has the same target. Put plainly: co-IP.
For assay [5], the target named is β-catenin (human (endogenous in OVCA429)) (UniProt P35222). Description: proximity ligation.
In the next assay the target is GFP-β-catenin (UniProt P35222). Description: co-IP.
The target in the next assay is GFP-mDia2 (UniProt Q9Z207). Put plainly: co-IP.

As for “mDia1 (Diaphanous-related formin 1) (from UniProt O60610 1-1272)”, the binding result in assay [1] and in assay [2] was “no binding” throughout. Consider β-catenin (from UniProt P35222 1-781), for which the binding entry in assay [3] and in assay [4] was “binds” in each case. In the case of αE-catenin (from UniProt P35221 1-906), the binding entry in assay [3], in assay [5] and in assay [4] was “binds” in each case. As to Flag-mDia2 (from UniProt Q9Z207 1-1171), the binding entry with GFP-β-catenin is “binds”. Consider “HA-α-catenin (from UniProt P35221 1-906)”, for which, in the assay with GFP-mDia2, the binding result is on record as “binds”.
